Laboratory results from patent publication US12702696B2, “Methods and composition for modulating immune response and immune homeostasis” (Massachusetts Institute of Technology, priority 2019, dated 2026).

Test system: LN-innervating sensory neurons
Experiment: Smart-Seq2 scRNA-seq differential gene expression of LN-innervating vs skin-innervating sensory neurons and Neuron Types (Table 1)
Parameters: species or system mouse
Conditions: gene upregulated in Neuron Type 2 (NP-like); differential expression between Neuron Types of LN-/skin-innervating sensory neurons

Q: Lap3 was tested. Which “log2 expression fold change” value did it give?
A: The value was 1.112.
